# Laboratory results taken from PubChem BioAssay AID1117319 (Southern Research Institute, 2015).
# Sequences of proteins named here, by UniProt entry; tags and fusion partners are left off. A change or cut given only in a name is not applied to a line headed by its entry.
# UniProt P69720: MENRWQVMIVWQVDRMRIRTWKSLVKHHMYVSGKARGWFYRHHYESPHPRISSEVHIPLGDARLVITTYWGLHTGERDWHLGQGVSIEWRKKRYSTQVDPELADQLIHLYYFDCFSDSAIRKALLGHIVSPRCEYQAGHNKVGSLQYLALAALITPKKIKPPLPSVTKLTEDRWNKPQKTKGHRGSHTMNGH
# UniProt P69721: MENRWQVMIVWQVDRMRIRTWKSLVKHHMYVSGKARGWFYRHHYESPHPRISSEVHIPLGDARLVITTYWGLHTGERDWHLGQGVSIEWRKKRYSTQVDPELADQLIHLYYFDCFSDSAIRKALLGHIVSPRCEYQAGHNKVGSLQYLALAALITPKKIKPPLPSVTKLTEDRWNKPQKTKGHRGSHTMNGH
# UniProt P69722: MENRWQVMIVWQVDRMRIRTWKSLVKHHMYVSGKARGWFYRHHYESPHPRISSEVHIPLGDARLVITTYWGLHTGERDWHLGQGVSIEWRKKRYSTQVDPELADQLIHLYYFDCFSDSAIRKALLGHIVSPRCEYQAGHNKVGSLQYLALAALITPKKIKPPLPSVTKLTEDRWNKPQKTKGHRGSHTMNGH
# UniProt P69723: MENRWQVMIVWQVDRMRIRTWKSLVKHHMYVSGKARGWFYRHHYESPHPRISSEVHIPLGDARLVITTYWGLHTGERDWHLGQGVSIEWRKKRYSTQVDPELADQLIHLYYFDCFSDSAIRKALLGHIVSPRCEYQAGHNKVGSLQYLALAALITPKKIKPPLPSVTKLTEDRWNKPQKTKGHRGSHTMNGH
# UniProt Q9HC16: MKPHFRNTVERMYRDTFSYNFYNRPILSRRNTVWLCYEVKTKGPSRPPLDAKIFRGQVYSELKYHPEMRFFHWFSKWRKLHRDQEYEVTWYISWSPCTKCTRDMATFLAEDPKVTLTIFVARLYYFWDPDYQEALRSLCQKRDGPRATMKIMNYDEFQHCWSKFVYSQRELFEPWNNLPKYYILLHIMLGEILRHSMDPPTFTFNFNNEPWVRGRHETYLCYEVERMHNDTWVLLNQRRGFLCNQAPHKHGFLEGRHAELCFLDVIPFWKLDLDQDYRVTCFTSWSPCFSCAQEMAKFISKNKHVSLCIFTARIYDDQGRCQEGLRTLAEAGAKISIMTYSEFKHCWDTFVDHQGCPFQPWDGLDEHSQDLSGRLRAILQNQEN
# Screen size: about 260,000 compounds; about 1,500 (0.58%) were called active. Inconclusive means that the source gave no clear call. Such entries were picked first, then a sample of the others.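 Rule for the calls: active = inhibition above a set limit at one or more doses, reproduced on every date tested; inconclusive = results disagree between test dates, or hit never tested in dose response; inactive = the rest.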
# Target: Virion infectivity factor (Human immunodeficiency virus type 1 group M subtype B (isolate BH10)) + Virion infectivity factor (Human immunodeficiency virus type 1 group M subtype B (isolate BRU/LAI)) + Virion infectivity factor (Human immunodeficiency virus type 1 group M subtype B (isolate PCV12)) + Virion infectivity factor (Human immunodeficiency virus type 1 group M subtype B (isolate HXB2)) + DNA dC->dU-editing enzyme APOBEC-3G (Homo sapiens) (UniProt P69720+P69721+P69722+P69723+Q9HC16)
# Test: inhibitors of Vif binding to APOBEC3G peptide, primary screen, biochemical, TR-FRET, GST-Vif 1-94, biotin-A3G peptide, dose response retest (AID 1117319);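 note: Vif residues 1-94 fused to GST binding biotinylated APOBEC3G peptide 110-148; 0% = full assay without inhibitor and 100% = GST in place of GST-Vif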
# Conditions: hits give high values
row,SMILES,inhibition
1,NC(=O)C1(N2CCCCC2)CCN(Cc2nc(-c3cccs3)no2)CC1,inconclusive: 61.4%
2,O=C(CSc1nc2ccccc2c(=O)n1-c1ccccc1)NCc1ccc2c(c1)OCO2,inactive: -2.26%
3,CCOC(=O)Cn1cc([N+](=O)[O-])c(OC)n1,inconclusive: 49.9%
4,CCCCCNCc1cccc(Br)c1,inconclusive: 39.6%
5,O=C1COc2ccc(C(=O)COC(=O)Cc3ccc(F)cc3)cc2N1,inactive: -9.09%
6,CCN(CC)S(=O)(=O)c1ccc(N2CC(C(=O)NCCC3=CCCCC3)CC2=O)cc1 (stereo not given),inactive: -3.38%
7,Cc1cc(Br)ccc1SCC(=O)OCC(=O)NCc1ccco1,inconclusive: 61.6%
8,CCn1c(-c2ccc([N+](=O)[O-])cc2)n[nH]c1=S,inconclusive: 36.2%
9,COC(=O)c1cccc(NC(=O)CSCc2ccccc2)c1,inactive: 6.61%
10,Cc1nn(C)cc1CNC(=O)c1cccc(Br)c1,inconclusive: 55%
11,Cc1cc(C(=O)Nc2sc3c(c2C#N)CCCC3)no1,inconclusive: 37.8%
12,CCCCCc1nnc(NC(=O)Cc2cccs2)s1,inconclusive: 36.1%
13,COCCn1c(-c2ccc(OC)cc2)cnc1N,inconclusive: 34.7%
14,CCN(CC)CCN(C(=O)CCS(=O)(=O)c1ccccc1)c1nc2cc(C)cc(C)c2s1,inactive: 7.31%
15,Fc1cccc(Nc2nc(Cl)nc(Cl)n2)c1,inconclusive: 37.6%
16,Cc1ccc(NC(=O)N2CCC(C(=O)Nc3ccc(C)cc3C)CC2)cc1,inactive: -2.75%
17,O=C(CSc1nnc(-c2ccccc2)c(-c2ccccc2)n1)NCc1ccco1,inconclusive: 33.7%
18,CC1Cc2cc(C3(O)C(=O)c4ccccc4C3=O)ccc2N1 (stereo not given),inconclusive: 30.5%
19,Cc1ccc(-c2cc(C(=O)Nc3cccnc3)c3ccccc3n2)o1,inconclusive: 52.2%
20,O=C(N/N=C\c1cc(Br)cs1)c1ccncc1,inconclusive: 38.9%
21,Cc1[nH]c2ccccc2c1/C=C(\C#N)C(=O)NC(C)c1ccccc1 (stereo not given),inconclusive: 57.9%
22,C/C(=C\C(=O)c1ccc(Br)cc1)Nc1cccc(Cl)c1,inactive: -2.57%
23,O=C(O)CSc1c2c(nc3cc(C(=O)NCCN4CCOCC4)ccc13)CCC2,inconclusive: 40.3%

row,SMILES,inhibition
1,COc1ccc(-n2c(Cc3cc(=O)[nH]c(=O)[nH]3)nnc2SCC(=O)NC2CCCC2)cc1,inactive: 2.26%
2,CCCCCCN(C(=O)CCCCCN1C(=O)NC(c2ccc(-c3ccccc3)cc2)C(C(=O)OCc2ccccc2)=C1C)C(C(=O)NCCCC)c1cccc(C(=O)OC)c1 (stereo not given),inconclusive: 53.3%
3,O=C(CCl)Oc1ccc2occ(C(=O)c3cccs3)c2c1,inconclusive: 33%
4,CCOC(=O)c1cnc(SCC(=O)c2ccccc2)nc1N,inconclusive: 41.3%
5,COc1ccccc1NS(=O)(=O)c1ccc(C)c(C(=O)NCC2(N(C)C)CCCCC2)c1,inactive: -8.71%
6,CCCCN=C(C)c1c(O)c2ccccc2oc1=O,inconclusive: 60.3%
7,CCc1cc2c(=O)n(Cc3ccco3)c(SCC(=O)N3CCCc4ccccc43)nc2s1,inconclusive: 33.6%
8,Cc1ccc(/C=N/N=C/c2ccc(C)cc2)cc1,inactive: 1.03%
9,Cc1ccccc1OCC(=O)N/N=C/C=C/c1ccccc1,inconclusive: 45.6%
10,Cc1ccc(NC2=NC(c3ccc(F)cc3)n3c(nc(C)cc3=O)N2)cc1 (stereo not given),inactive: 5.66%
11,CCCSc1cc(NCCOC(=O)CCC)c([N+](=O)[O-])c2nonc12,inconclusive: 38.5%
12,COC(=O)NC(=S)Nc1ccc(Oc2ccc(Cl)cc2Cl)c(Cl)c1,inconclusive: 34.5%
13,Cc1cc(C)c(NC(=O)CN(C)CC(=O)N(C)CC(=O)Nc2c(Cl)cccc2Cl)c(C)c1,inactive: -11.3%
14,Cc1cc(C)c2c(=O)[nH]c(=O)n(Cc3ccccc3)c2n1,inactive: 11.8%
15,CCC(C(=O)NC(C)CCc1ccco1)n1nc(C)n2c(cc3occc32)c1=O (stereo not given),inconclusive: 57.4%
16,CCc1c(O)nc(SCC(=O)Nc2ccccc2)n(-c2ccccc2)c1=O,inconclusive: 57.2%
17,Cc1ccc(-c2cc(C(=O)Nc3ccccn3)c3ccccc3n2)o1,inconclusive: 52.2%
18,CC(=O)OCC(=O)c1ccc2ccn(C(C)=O)c2c1,inconclusive: 53.9%
19,O=C(Cc1c(O)c2ccccc2[nH]c1=O)OC1CCCCC1,inconclusive: 36.5%
20,O=C1N=C(N2CCCC2)S/C1=C\c1ccccc1,inactive: 27.9%
21,COCCn1nnnc1C(c1cccc(C#N)c1)N1CCCCCC1 (stereo not given),inconclusive: 44.3%
22,CCC(C)NS(=O)(=O)c1ccc(S(=O)(=O)Nc2cc3c(cc2C(C)=O)OCO3)cc1 (stereo not given),inconclusive: 40.2%
23,Cc1c(Cc2ccccc2)c(NCCCO)n2c(nc3ccccc32)c1C#N,inconclusive: 50.9%

# Some of the entries so far, with bars between the fields.
row | SMILES | inhibition
9 | Cc1ccccc1OCC(=O)N/N=C/C=C/c1ccccc1 | inconclusive: 45.6%
10 | Cc1ccc(NC2=NC(c3ccc(F)cc3)n3c(nc(C)cc3=O)N2)cc1 (stereo not given) | inactive: 5.66%
11 | CCCSc1cc(NCCOC(=O)CCC)c([N+](=O)[O-])c2nonc12 | inconclusive: 38.5%

# Later entries

row,SMILES,inhibition
1,CN(CC(=O)NCCN1CCN(Cc2ccccc2)CC1)S(=O)(=O)c1cccc2nsnc12,inconclusive: 57.6%
2,Cc1c(Cl)cccc1Nc1nc(N)nc(CN2CCc3ccccc3C2)n1,inconclusive: 49.8%
3,COC(=O)CN1C(=O)S/C(=C/c2ccc(N3CCCCC3)o2)C1=O,inconclusive: 52.2%
4,CCCCn1nc(C(=O)Nc2ccc(-n3cnnn3)cc2)c2ccccc2c1=O,inconclusive: 42.3%
5,CCCCc1ccc(NC(=S)N2CCCC(CO)C2)cc1 (stereo not given),inconclusive: 38.8%
6,CCN(CC)c1ccc(CN(C(=O)c2cc(OC)c(OC)c(OC)c2)C2CCS(=O)(=O)C2)cc1 (stereo not given),inconclusive: 39.8%
7,CCCCC(=O)Nc1cccc(-c2csc(-c3ccccc3)n2)c1,inactive: -12.6%
8,Cc1ccnc(NC(=O)c2cccc(S(=O)(=O)NCc3ccccc3)c2)c1,inactive: -2.28%
9,Cc1cc(N2C(=O)C(=O)/C(=C(/O)c3ccccc3)C2c2cccs2)no1 (stereo not given),inconclusive: 36.6%
10,COc1cc(C(=O)Oc2ccccc2N)cc(OC)c1OC,inactive: -1.18%
11,CC(C)Oc1ccc(C(=O)NCC(=O)OCC(=O)N(C)Cc2cccs2)cc1,inconclusive: 34.3%
12,CCOc1ccc(NC2=C(Cl)C(=O)N(Cc3ccccc3)C2=O)cc1,inconclusive: 29.2%
13,Cc1c(C(=O)NCCSCc2cccc(C(F)(F)F)c2)cnn1-c1ccc(Cl)cc1,inconclusive: 34.5%
14,O=C(Nc1ccc(Br)cc1)c1cc2ccccn2n1,inconclusive: 36.2%
15,C=CCn1c(Cc2c(C)[nH]c3ccccc23)nnc1SCC(=O)NCc1ccc(F)cc1,inconclusive: 39.8%
16,CN(Cc1ccco1)C(=O)c1c[nH]c2ccc(S(=O)(=O)Nc3ccc4c(c3)OCCO4)cc2c1=O,inactive: 11.3%
17,CCN1C(=O)CC(C(=O)Nc2ccc(F)cc2)SC1=Nc1ccc2c(c1)OCO2 (stereo not given),inconclusive: 48.6%
18,C[C@@H]1CCC[C@H](C)N1Cc1nc(Cc2ccccc2Cl)no1,inactive: -1.65%
19,CC1=CCC2C(=O)N(c3ccc4ccccc4n3)C(=O)C2C1 (stereo not given),inactive: 3.04%
20,Nc1ccc(-n2nnnc2-c2ccco2)cc1,inconclusive: 34.1%
21,CS(=O)(=O)N1CCCC(C(=O)NCCN2CCC(Cc3ccccc3)CC2)C1 (stereo not given),inactive: -4.71%
22,COc1ccccc1-c1nc(NC(C)=O)n[nH]1,inconclusive: 36.8%
23,O=C(CSc1nc2sc3c(c2c(=O)[nH]1)CCC3)NCCO,inactive: -6.15%

row,SMILES,inhibition
1,CC(=O)Nc1ccc(S(=O)(=O)N2CCN(c3ccccn3)CC2)cc1,inactive: 25%
2,COc1ccc(C(CNC(=O)c2ccc(OCC3CCCO3)cc2)N2CCOCC2)cc1 (stereo not given),inactive: -4.51%
3,CCCn1c(COc2ccccc2)nc2ccccc21,inconclusive: 47.6%
4,Cn1cc(CNCCCn2ncc3ccccc32)c(-c2ccccc2F)n1,inconclusive: 48.9%
5,O=C(CSc1ncnc2c1oc1ccccc12)NC1CCCCC1,inconclusive: 56.5%
6,ClCc1nnc(-c2ccccc2)o1,inconclusive: 53.2%
7,COc1ccc(-c2nc(CS(=O)CC(=O)NCCCN3CC(C)CC(C)C3)c(C)o2)cc1OC (stereo not given),inconclusive: 39.5%
8,c1ccc(CSc2n[nH]c(-c3ccco3)n2)cc1,inactive: 28.1%
9,CCCCCCN(C(=O)CCCCCN1C(=O)NC(c2ccc([N+](=O)[O-])cc2)C(C(=O)OCc2ccccc2)=C1C)C(C(=O)NCCCC)c1ccc(OCC(=O)OC)c(C(=O)OC)c1 (stereo not given),inconclusive: 41.7%
10,CN(Cc1ccccc1)C(=O)COC(=O)C1CCN(S(=O)(=O)c2ccc3c(c2)OCCO3)CC1,inactive: -5.03%
11,CC(NC(=O)c1ccccc1F)c1nnc(SCC(=O)NC2CCCCC2)n1C (stereo not given),inconclusive: 33.4%
12,CC(C)Nc1nc2cccnc2s1,inactive: -0.88%
13,CN(C)CCNc1nc(-c2ccccc2)nnc1C(F)(F)F,inconclusive: 58.8%
14,CC1=NOC(=O)/C1=C\c1ccc(-c2ccc(Cl)cc2Cl)o1,inconclusive: 58.5%
15,O=C(/C=C/c1ccc(F)cc1)c1cc(Br)ccc1O,inactive: -1.23%
16,Cc1cc(O)c(NC(=O)c2ccc(Br)o2)cc1C,inconclusive: 62.1%
17,NNc1nc(-c2ccccc2)cs1,inconclusive: 34.3%
18,CN=C(Nc1cc(C)nn1CCC#N)c1ccc(F)cc1,inconclusive: 36.8%
19,COc1ccc(C(=O)Nc2cccc(-c3nc4ncccc4o3)c2C)cc1,inconclusive: 34.9%
20,CCN(CC)S(=O)(=O)c1ccc(C)c(NC(=O)CSc2nc3ccc(C)cc3[nH]2)c1,inconclusive: 42%
21,COCCn1c(=O)[nH]c(=O)c2c1nc(-c1ccc(-c3ccc(Cl)cc3[N+](=O)[O-])o1)n2Cc1ccccc1,inconclusive: 37.1%
